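Human melanoma cells were exposed to a pair of drugs for 72 h in 1,536-well plates and read by automated microscopy after fixing and staining. The read-out is the fraction of cleaved-PARP-positive nuclei, in % of that fraction in the DMSO control; 200 means twice the control level of this apoptosis marker. Every drug was used at one fixed concentration, the higher of two screened. No replicate spread is given; individual values may be noisy. The marker varies much from line to line, for technical or biological reasons.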
This is part of the screen, not chosen by result.
An entry leaves out what has no value listed here.
A dash means that no value is listed here.

First drug in all entries: BMS-536924, 1 µM, Cc1cc(N2CCOCC2)cc2[nH]c(-c3c(NC[C@@H](O)c4cccc(Cl)c4)cc[nH]c3=O)nc12

Drug key:
vatalanib: Clc1ccc(Nc2nnc(Cc3ccncc3)c3ccccc23)cc1 at 10 µM
TCS401: O=C(O)C(=O)Nc1sc2c(c1C(=O)O)CCNC2 at 8.33 µM
fludarabine: Nc1nc(F)nc2c1ncn2[C@@H]1O[C@H](CO)[C@@H](O)[C@@H]1O at 1 µM
selumetinib: Cn1cnc2c(F)c(Nc3ccc(Br)cc3Cl)c(C(=O)NOCCO)cc21 at 0.075 µM
dorsomorphin: c1cc(-c2cnn3cc(-c4ccc(OCCN5CCCCC5)cc4)cnc23)ccn1 at 2 µM
FH535: Cc1cc([N+](=O)[O-])ccc1NS(=O)(=O)c1cc(Cl)ccc1Cl at 5 µM
GW441756: Cn1cc(/C=C2\C(=O)Nc3cccnc32)c2ccccc21 at 2 µM
ENMD-2076: Cc1cc(Nc2cc(N3CCN(C)CC3)nc(/C=C/c3ccccc3)n2)n[nH]1 at 0.2 µM
enzastaurin: Cn1cc(C2=C(c3cn(C4CCN(Cc5ccccn5)CC4)c4ccccc34)C(=O)NC2=O)c2ccccc21 at 4 µM
dasatinib: Cc1nc(Nc2ncc(C(=O)Nc3c(C)cccc3Cl)s2)cc(N2CCN(CCO)CC2)n1 at 0.02 µM
OSI-906: C[C@]1(O)C[C@@H](c2nc(-c3ccc4ccc(-c5ccccc5)nc4c3)c3c(N)nccn32)C1 at 2 µM
KU-0063794: COc1ccc(-c2ccc3c(N4CCOCC4)nc(N4C[C@@H](C)O[C@@H](C)C4)nc3n2)cc1CO at 0.1 µM
embelin: CCCCCCCCCCCC1=C(O)C(=O)C=C(O)C1=O at 6 µM
sunitinib: CCN(CC)CCNC(=O)c1c(C)[nH]c(/C=C2\C(=O)Nc3ccc(F)cc32)c1C at 2 µM
SNS-032: CC(C)(C)c1cnc(CSc2cnc(NC(=O)C3CCNCC3)s2)o1 at 0.05 µM
everolimus: CO[C@H]1C[C@@H]2CC[C@@H](C)[C@@](O)(O2)C(=O)C(=O)N2CCCC[C@H]2C(=O)O[C@H]([C@H](C)C[C@@H]2CC[C@@H](OCCO)[C@H](OC)C2)CC(=O)[C@H](C)/C=C(\C)[C@@H](O)[C@@H](OC)C(=O)[C@H](C)C[C@H](C)/C=C/C=C/C=C/1C at 0.1 µM
dovitinib: CN1CCN(c2ccc3nc(-c4c(N)c5c(F)cccc5[nH]c4=O)[nH]c3c2)CC1 at 0.5 µM
vorinostat: O=C(CCCCCCC(=O)Nc1ccccc1)NO at 0.4 µM
CX-4945: O=C(O)c1ccc2c(c1)nc(Nc1cccc(Cl)c1)c1ccncc12 at 2 µM
PLX4720: CCCS(=O)(=O)Nc1ccc(F)c(C(=O)c2c[nH]c3ncc(Cl)cc23)c1F at 0.4 µM
GW2580: COc1ccc(COc2ccc(Cc3cnc(N)nc3N)cc2OC)cc1 at 5 µM
PF-562271: CN(c1ncccc1CNc1nc(Nc2ccc3c(c2)CC(=O)N3)ncc1C(F)(F)F)S(C)(=O)=O at 0.4 µM

| Second drug | WM451Lu | RPMI-7951 | UACC-257 | COLO 829 | MZ2-MEL | A101D | SK-MEL-28 | A375 | IST-MEL1 | SK-MEL-5 |
|---|---|---|---|---|---|---|---|---|---|---|
| dovitinib | 321 | 111 | 112 | 50.9 | 427 | 90.3 | 518 | - | 156 | 102 |
| CX-4945 | 116 | 218 | 99.6 | 289 | 303 | 134 | 112 | - | 306 | 379 |
| dasatinib | 310 | 982 | 42.8 | 183 | 306 | 72.0 | 135 | - | 65.5 | 115 |
| SNS-032 | 45.7 | 157 | 34.6 | 106 | 363 | 106 | 201 | - | 27.9 | 122 |
| GW2580 | 141 | 201 | 71.2 | 59.5 | 165 | 126 | 64.3 | 92.6 | 67.7 | 118 |
| TCS401 | 99.0 | 66.4 | 48.1 | 53.5 | 109 | 105 | 59.0 | 62.8 | 52.7 | 180 |
| vatalanib | 40.0 | 95.3 | 43.7 | 95.0 | 177 | 93.3 | 80.6 | - | 124 | 168 |
| OSI-906 | 80.6 | 69.8 | 72.2 | 72.0 | 116 | 158 | 26.1 | - | 78.1 | 77.7 |
| fludarabine | 58.3 | 74.0 | 4990 | 112 | 96.9 | 87.5 | 3520 | - | 47.1 | 5200 |
| FH535 | 89.0 | 41.4 | 175 | 140 | 308 | 82.9 | 48.6 | 173 | 95.7 | 269 |
| selumetinib | 591 | 74.6 | 74.0 | 117 | 673 | 81.0 | 147 | - | 61.5 | 115 |
| dorsomorphin | 303 | 511 | 18.6 | 90.5 | 205 | 87.3 | 106 | 227 | 69.2 | 317 |
| embelin | 39.0 | 75.4 | 51.8 | 40.8 | 176 | 132 | 76.1 | 65.8 | 92.0 | 94.2 |
| vorinostat | 44.4 | 175 | 99.8 | 90.0 | 231 | 245 | 114 | - | 264 | 990 |
| PLX4720 | 110 | 33.2 | 40.7 | 146 | - | 389 | 176 | - | 123 | 156 |
| enzastaurin | 97.4 | 82.4 | 63.6 | 72.0 | 68.1 | 43.3 | 180 | - | 109 | 186 |
| everolimus | 337 | 27.6 | 291 | 137 | 642 | 199 | 180 | - | 307 | 1570 |
| sunitinib | 172 | 301 | 76.8 | 55.9 | 187 | 166 | 69.2 | - | 112 | 199 |
| GW441756 | 109 | 153 | 52.2 | 62.3 | 92.0 | 74.8 | 187 | 50.0 | 112 | 88.2 |
| PF-562271 | 175 | 187 | 68.4 | 111 | 240 | 29.3 | 56.9 | - | 58.2 | 76.1 |
| KU-0063794 | 121 | 159 | 42.2 | 70.2 | 62.6 | 47.9 | 75.3 | 114 | 29.1 | 430 |
| ENMD-2076 | 137 | 102 | 70.9 | 96.4 | 190 | 272 | 85.5 | - | 181 | 108 |

2 of the entries, repeated:

{"second drug": "embelin", "WM451Lu": 39.0, "RPMI-7951": 75.4, "UACC-257": 51.8, "COLO 829": 40.8, "MZ2-MEL": 176, "A101D": 132, "SK-MEL-28": 76.1, "A375": 65.8, "IST-MEL1": 92.0, "SK-MEL-5": 94.2}
{"second drug": "sunitinib", "WM451Lu": 172, "RPMI-7951": 301, "UACC-257": 76.8, "COLO 829": 55.9, "MZ2-MEL": 187, "A101D": 166, "SK-MEL-28": 69.2, "IST-MEL1": 112, "SK-MEL-5": 199}

Values as published with doi:10.1371/journal.pone.0140310, rounded.